The list shows a part of the results. Most values come without repeats; read them as rough.
Test system: Saccharomyces cerevisiae BY4743
Assay: growth (OD600) relative to untreated control; higher = less growth inhibition
Details: compound concentration: 133 uM; 20 h
Method: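 NMCCC compounds (133 uM, no IPBC) tested alone against Saccharomyces cerevisiae BY4743 in YPD, 96-well plates, starting OD600 ~0.1. Growth was read as OD600 at 20 h and expressed as % of the untreated control. Single pass.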

SMILES | growth
CCn1c(SCc2cc(C)on2)nnc1C1CC1 | 102%
Cc1ccccc1Cn1cc(NS(=O)(=O)c2ccc(Br)s2)cn1 | 110%
CNC(=O)C(c1ccc(Cl)cc1)N(C)Cc1cc2c(cc1Br)OCCO2 (configuration not stated) | 93.3%
CCCCC(=O)Nc1cc(O)nc2nc(-c3ccc(Cl)cc3)nn12 | 87.2%
CCOc1ccc(CC(=O)NCc2cn3c(C)csc3n2)cc1 | 107%
CCC(C)(CNC(=O)c1cc(Br)c(Br)s1)N1CCOCC1 (configuration not stated) | 108%
O=C([O-])c1cc(O)nc2ccc(S(=O)(=O)Nc3ccc(F)cc3)cc12 | 96%

Taken from the listing for reference:
SMILES | growth
CCC(C)(CNC(=O)c1cc(Br)c(Br)s1)N1CCOCC1 (configuration not stated) | 108%
O=C([O-])c1cc(O)nc2ccc(S(=O)(=O)Nc3ccc(F)cc3)cc12 | 96%

Reference: the supplement of paper PMC8007513
